In PubChem BioAssay AID624331 (National Center for Advancing Translational Sciences (NCATS), 2012):
The inconclusive results got no clear call from the source. Where the call is inconclusive, the potency comes from a doubtful curve fit.

Test: qHTS assay for re-activators of p53 using a Luc reporter: Hit Validation with no p53 Expressed
Conditions: p53-null cells, luciferase reporter counter-screen; active = well fitted activation curve with a large enough effect; inconclusive = small, poorly fitted or top-dose-only effect; inactive = no such curve, though single readings can be large or run the other way
From the text: The p53 tumor suppressor plays a key role in suppression of tumorigenesis and in human carcinogenesis. It is frequently found inactivated in human cancers, mainly by point mutation. These point mutations are found in a wide variety of human cancers and a majority of them affect the DNA binding domain of the protein. The point mutations either alter native p53 conformation or abolish DNA contact. Additionally, cancer cells with p53 mutations are more resistant to chemo-radiation therapies.
This counter screen was run against the hits identified from the primary screen. It uses a cell line that was not transfected with p53. Compounds that show activity in this counter screen show unspecific activation of the assay system and are excluded from further consideration.
NIH Chemical Genomics Center [NCGC]
NIH Molecular Libraries Probe Production Centers Network [MLPCN]
Assay Provider (PI): Yi Sung, University of Michigan at Ann Arbor
5ul of 1000 cells per well are dispensed in all wells except column 4, into white solid-bottom TC-treated Kalypsys plates. The cells are kept in Opti-MEM and supplemented with 10% FBS and dispensed using a Multidrop (Thermo). Then using the Kalypsys pin-tool, 23nl of compounds are pinned. […] Plates are incubated for 10 min at ambient room temperature and are then read on the ViewLux (Perkin Elmer) using a clear filter for a luminescent read-out.
Potency is read from the fitted curve at half-maximal effect.

In the case of `CCOc1ccc(/C=C/C(=O)C(C(N)=O)=C2SCCS2)cc1`, the Potency is reported as inconclusive: 29.1 µM [activator, single point].

For `O=c1oc2ccccc2n1CSC1=NCCS1`, the Potency was inconclusive: 20.6 µM [activator, single point].
